# From the supplement of paper PMC10849652
# Amino acid sequences for entries named in this document (tags omitted). A change or cut given only in a name is not applied to a line headed by its entry.
# UniProt Q9BVA0, whole entry, looked up: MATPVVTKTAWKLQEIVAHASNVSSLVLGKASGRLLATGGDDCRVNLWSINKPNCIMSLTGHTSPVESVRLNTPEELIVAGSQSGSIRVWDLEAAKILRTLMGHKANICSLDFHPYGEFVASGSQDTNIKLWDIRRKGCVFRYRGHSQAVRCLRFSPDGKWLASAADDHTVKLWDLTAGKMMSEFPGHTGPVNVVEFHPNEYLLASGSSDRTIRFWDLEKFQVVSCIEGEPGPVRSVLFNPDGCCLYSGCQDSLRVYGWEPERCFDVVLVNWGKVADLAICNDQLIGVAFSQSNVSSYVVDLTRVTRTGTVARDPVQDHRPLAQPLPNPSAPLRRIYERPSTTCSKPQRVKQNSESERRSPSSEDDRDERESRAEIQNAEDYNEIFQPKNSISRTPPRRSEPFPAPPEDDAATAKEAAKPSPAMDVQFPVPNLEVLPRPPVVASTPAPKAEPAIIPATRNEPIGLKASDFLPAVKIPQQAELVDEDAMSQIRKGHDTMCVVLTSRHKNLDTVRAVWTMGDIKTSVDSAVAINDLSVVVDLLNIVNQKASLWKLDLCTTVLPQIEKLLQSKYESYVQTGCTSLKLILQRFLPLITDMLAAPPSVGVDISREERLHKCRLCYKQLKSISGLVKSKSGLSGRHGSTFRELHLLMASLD
# UniProt Q9UK76: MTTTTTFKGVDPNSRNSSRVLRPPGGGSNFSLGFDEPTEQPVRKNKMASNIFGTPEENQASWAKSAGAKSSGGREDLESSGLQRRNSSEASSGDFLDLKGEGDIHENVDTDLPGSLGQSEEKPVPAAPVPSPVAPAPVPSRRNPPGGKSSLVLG
# UniProt P17535: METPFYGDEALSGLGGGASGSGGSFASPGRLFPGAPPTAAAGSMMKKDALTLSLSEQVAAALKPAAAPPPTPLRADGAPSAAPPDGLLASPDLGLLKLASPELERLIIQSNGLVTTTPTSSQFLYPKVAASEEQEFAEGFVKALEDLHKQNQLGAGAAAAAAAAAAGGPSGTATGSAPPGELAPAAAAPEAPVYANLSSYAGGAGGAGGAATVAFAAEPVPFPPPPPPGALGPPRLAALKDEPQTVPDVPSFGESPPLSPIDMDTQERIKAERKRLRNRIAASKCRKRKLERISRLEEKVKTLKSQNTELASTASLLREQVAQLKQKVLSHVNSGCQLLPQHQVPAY
# UniProt Q8N371: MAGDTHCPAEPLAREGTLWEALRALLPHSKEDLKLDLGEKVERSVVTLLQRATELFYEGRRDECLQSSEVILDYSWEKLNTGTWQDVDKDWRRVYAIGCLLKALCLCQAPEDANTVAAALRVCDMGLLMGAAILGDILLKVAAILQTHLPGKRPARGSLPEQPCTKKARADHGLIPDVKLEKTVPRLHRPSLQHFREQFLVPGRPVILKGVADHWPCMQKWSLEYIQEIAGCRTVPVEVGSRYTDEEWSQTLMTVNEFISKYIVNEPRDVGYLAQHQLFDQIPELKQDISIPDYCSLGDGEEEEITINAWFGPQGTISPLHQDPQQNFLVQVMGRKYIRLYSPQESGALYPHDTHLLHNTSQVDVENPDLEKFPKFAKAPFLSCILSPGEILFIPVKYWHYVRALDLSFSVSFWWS
# UniProt Q96SI1: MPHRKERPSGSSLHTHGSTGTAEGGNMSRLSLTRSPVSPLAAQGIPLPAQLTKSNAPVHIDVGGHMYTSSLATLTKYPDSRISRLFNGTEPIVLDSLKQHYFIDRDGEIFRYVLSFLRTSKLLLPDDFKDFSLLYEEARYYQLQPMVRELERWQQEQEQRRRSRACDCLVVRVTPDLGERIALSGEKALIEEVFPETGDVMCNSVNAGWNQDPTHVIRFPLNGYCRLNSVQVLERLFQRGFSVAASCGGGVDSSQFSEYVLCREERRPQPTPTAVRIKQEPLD
# UniProt Q96AT1: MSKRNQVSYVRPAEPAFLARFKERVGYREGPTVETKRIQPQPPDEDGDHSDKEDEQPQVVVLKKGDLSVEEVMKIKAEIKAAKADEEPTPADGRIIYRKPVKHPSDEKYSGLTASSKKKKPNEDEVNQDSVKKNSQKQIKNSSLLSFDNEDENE
# UniProt P50053: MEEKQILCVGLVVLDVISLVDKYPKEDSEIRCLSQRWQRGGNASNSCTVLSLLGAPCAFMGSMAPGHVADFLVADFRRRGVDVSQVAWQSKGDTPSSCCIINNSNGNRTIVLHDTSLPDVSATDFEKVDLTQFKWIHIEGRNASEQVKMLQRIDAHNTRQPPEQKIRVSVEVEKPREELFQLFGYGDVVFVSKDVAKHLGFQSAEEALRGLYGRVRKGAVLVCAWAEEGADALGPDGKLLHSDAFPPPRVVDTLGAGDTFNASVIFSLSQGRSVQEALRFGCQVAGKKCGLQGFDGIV
# UniProt P57682: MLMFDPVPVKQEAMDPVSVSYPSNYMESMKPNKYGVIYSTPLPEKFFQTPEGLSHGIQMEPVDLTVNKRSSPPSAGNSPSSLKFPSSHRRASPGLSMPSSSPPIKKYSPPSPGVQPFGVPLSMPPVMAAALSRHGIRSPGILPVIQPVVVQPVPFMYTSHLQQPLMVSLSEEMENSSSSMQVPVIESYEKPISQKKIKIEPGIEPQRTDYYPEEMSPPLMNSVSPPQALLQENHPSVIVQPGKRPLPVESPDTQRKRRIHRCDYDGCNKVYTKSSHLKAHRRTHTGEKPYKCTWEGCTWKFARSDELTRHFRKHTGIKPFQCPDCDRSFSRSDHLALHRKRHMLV
# UniProt Q674X7: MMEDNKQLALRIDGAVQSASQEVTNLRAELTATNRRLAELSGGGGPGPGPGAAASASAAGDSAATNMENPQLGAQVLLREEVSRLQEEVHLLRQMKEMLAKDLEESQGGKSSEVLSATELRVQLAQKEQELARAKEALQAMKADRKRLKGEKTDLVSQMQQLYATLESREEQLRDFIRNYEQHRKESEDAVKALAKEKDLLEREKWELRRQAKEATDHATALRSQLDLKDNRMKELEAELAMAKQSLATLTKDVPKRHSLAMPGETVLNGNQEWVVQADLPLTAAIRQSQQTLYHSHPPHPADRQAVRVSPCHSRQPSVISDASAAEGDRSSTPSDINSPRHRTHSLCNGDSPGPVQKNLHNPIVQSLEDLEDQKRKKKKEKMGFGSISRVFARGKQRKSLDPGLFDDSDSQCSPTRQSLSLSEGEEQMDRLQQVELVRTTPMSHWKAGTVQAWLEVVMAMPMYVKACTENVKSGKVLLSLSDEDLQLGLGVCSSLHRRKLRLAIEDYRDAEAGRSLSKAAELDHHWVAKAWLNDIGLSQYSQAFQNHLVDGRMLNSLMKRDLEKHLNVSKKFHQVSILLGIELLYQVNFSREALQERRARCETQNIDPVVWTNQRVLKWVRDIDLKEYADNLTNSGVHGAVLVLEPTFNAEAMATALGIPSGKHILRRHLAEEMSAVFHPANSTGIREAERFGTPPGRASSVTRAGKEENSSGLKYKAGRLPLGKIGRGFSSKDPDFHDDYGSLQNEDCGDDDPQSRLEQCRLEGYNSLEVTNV
# UniProt Q8IY47: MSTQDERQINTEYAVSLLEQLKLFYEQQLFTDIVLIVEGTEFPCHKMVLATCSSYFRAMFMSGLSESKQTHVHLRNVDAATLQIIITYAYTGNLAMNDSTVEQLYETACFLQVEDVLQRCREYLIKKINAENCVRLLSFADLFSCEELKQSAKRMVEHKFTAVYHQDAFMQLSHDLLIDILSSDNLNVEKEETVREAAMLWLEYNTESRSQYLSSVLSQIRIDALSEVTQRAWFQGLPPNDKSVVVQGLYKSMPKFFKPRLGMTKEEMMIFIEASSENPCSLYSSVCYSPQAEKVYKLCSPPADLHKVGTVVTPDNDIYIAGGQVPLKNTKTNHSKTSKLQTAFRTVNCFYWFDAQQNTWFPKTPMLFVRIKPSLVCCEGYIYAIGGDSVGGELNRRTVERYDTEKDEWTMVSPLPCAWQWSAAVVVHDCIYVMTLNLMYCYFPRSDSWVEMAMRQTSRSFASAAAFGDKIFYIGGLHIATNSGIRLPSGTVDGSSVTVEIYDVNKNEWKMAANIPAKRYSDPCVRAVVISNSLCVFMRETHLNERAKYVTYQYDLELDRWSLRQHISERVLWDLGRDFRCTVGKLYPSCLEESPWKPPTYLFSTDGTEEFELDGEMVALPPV
# UniProt Q9NVR0: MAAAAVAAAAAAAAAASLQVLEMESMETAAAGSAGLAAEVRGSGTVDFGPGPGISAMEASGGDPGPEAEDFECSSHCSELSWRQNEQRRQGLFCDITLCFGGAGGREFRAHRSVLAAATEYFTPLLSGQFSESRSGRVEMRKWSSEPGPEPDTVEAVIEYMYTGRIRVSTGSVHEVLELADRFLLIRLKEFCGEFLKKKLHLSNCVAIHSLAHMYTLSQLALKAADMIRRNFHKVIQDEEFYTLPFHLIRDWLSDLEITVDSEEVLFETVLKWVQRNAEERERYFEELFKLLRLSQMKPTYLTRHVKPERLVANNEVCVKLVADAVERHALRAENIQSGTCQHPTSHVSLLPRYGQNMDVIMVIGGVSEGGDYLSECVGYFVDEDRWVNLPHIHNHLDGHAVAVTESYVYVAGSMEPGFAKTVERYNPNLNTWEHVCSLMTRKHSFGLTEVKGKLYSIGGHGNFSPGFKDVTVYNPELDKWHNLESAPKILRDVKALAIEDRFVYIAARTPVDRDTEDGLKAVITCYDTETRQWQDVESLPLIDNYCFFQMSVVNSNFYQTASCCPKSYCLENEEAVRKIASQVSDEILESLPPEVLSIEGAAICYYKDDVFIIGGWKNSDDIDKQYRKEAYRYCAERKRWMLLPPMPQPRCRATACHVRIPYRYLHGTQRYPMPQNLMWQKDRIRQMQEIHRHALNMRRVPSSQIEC
# UniProt P33176: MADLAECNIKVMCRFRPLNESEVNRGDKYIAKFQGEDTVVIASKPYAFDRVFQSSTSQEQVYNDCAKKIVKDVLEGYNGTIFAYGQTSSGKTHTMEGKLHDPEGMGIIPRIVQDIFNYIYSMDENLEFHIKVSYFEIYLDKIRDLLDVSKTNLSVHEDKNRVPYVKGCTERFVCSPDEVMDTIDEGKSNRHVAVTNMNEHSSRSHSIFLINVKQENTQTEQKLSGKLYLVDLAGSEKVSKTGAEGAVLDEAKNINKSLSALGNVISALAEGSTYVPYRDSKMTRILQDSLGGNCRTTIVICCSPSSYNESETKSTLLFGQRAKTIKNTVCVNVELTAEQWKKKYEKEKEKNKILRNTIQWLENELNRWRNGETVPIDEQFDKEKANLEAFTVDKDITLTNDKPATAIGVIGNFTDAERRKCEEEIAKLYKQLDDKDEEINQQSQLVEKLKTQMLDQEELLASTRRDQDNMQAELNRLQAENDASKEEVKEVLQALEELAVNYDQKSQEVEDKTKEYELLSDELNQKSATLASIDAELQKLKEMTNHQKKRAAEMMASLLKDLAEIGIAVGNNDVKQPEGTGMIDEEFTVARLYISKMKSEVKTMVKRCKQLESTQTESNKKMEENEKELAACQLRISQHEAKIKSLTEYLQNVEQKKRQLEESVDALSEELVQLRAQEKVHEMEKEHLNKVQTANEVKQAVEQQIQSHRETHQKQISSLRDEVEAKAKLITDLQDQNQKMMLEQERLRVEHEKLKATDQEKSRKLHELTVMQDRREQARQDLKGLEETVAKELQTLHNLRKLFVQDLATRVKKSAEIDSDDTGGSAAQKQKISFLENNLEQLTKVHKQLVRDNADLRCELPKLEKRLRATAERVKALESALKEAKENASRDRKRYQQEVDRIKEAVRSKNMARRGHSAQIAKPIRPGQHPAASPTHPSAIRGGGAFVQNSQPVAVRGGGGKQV
# UniProt Q92945: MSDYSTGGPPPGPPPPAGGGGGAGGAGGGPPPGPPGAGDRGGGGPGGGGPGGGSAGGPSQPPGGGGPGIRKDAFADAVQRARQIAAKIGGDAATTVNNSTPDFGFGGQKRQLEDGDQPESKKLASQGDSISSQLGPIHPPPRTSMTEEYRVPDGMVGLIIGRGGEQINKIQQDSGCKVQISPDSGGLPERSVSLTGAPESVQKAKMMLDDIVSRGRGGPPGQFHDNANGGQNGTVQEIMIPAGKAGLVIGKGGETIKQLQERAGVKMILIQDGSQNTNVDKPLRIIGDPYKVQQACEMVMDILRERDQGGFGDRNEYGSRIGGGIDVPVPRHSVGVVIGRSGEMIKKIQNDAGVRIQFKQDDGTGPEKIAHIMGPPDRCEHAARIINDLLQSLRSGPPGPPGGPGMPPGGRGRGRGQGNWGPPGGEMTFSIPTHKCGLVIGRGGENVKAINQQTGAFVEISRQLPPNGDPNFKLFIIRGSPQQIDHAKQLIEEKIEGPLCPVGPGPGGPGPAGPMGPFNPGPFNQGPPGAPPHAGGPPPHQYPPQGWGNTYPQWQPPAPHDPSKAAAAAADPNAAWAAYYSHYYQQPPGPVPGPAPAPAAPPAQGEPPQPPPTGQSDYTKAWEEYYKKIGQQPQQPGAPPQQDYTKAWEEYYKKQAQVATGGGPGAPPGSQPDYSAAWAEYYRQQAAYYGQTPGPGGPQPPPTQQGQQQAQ
# The list shows a part of the results.
# Compound: CC1=CC=C(C=C1)SC2=C3C=C(SC3=CN=C2)C(=O)N
# Assay: log2 fold change, soluble protein after heating vs DMSO (PISA); higher = thermal stabilisation; K562 cells, 10 uM, 30 min; active = over 0.2 and 3.5 SD of the protein, either way, in both replicates (recomputed)
# How it was run: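 K562 cells at 2×10^6 cells/mL were exposed to 10 μM compound for 30 min, then aliquots were heated for 3 min across 48°C-58°C, pooled, and extracted in PBS containing 0.5% NP-40 at 4°C. The supernatant after 21,000xg for 90 min was taken as soluble protein and measured by TMTpro 16plex LC-MS/MS with channel sums equalised. Thermal stability is reported relative to control samples, with values from duplicates. Fold changes are given on a log2 scale.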
row,Target,log2 fold change
1,KATNB1 (UniProt Q9BVA0),inactive: 0.08
2,KMT2D isoform 3 (UniProt O14686),inactive: -0.066
3,KCMF1 (UniProt Q9P0J7),inactive: -0.043
4,JPT1 (UniProt Q9UK76),inactive: -0.015
5,JUND (UniProt P17535),inactive: -0.066
6,JMJD1C (UniProt Q15652),inactive: -0.036
7,KDM8 isoform 3 (UniProt Q8N371),inactive: 0.017
8,JAGN1 (UniProt Q8N5M9),inactive: 0.014
9,KIDINS220 (UniProt Q9ULH0),inactive: -0.021
10,KCTD15 (UniProt Q96SI1),inactive: -0.014
11,KCTD3 (UniProt Q9Y597),inactive: -0.016
12,KIAA1143 (UniProt Q96AT1),inactive: -0.058
13,KHK isoform 2 (UniProt P50053),inactive: -0.021
14,KIF23 (UniProt Q02241),inactive: -0.006
15,KIAA1522 isoform 2 (UniProt Q9P206),inactive: -0.079
16,KLF3 (UniProt P57682),inactive: -0.033
17,KIF2A isoform 4 (UniProt O00139),inactive: -0.067

# Retrieved one by one from the list above, two records:
row,Target,log2 fold change
4,JPT1 (UniProt Q9UK76),inactive: -0.015
17,KIF2A isoform 4 (UniProt O00139),inactive: -0.067

# Continued.

row,Target,log2 fold change
1,KIF5A (UniProt Q12840),inactive: -0.026
2,IVNS1ABP (UniProt Q9Y6Y0),inactive: 0.012
3,KPNA3 (UniProt O00505),inactive: 0.014
4,KIAA0319L (UniProt Q8IZA0),inactive: -0.032
5,KCNAB2 (UniProt Q13303),inactive: 0.001
6,KAZN isoform 3 (UniProt Q674X7),inactive: 0.007
7,KNSTRN (UniProt Q9Y448),inactive: 0.045
8,KDM5C (UniProt P41229),inactive: 0.044
9,KLC1 isoform 6 (UniProt Q07866),inactive: 0.008
10,KBTBD2 (UniProt Q8IY47),inactive: 0.006
11,KLHL11 (UniProt Q9NVR0),inactive: -0.021
12,KDSR (UniProt Q06136),inactive: -0.006
13,KIF5B (UniProt P33176),inactive: -0.004
14,KIAA0100 (UniProt Q14667),inactive: 0.022
15,KHSRP (UniProt Q92945),inactive: -0.005
16,KCTD9 (UniProt Q7L273),inactive: -0.005
